This data set concerns the target BLM642-1290 helicase core (UniProt P54132). Briefly: fluorescence anisotropy. Conditions: 20 mM Tris, 25 mM NaCl, 3 mM MgCl2, 0.1 mM DTT, pH 7.9, 2 nM FAM-DNA, 500 nM BLM642-1290, FP temperature not stated, recombinant protein, residues 642-1290; for binding result: no inhibitor; for binding signal (% inhibition of binding): 50 uM AO/854, 3 mM Mg2+. (Fluorescence polarisation rises when a labelled molecule tumbles more slowly, as on binding a larger partner.)

By UniProt entry, the sequences of proteins in these tests, tags left out. Residues count along the entry.
UniProt P54132, 642-1290: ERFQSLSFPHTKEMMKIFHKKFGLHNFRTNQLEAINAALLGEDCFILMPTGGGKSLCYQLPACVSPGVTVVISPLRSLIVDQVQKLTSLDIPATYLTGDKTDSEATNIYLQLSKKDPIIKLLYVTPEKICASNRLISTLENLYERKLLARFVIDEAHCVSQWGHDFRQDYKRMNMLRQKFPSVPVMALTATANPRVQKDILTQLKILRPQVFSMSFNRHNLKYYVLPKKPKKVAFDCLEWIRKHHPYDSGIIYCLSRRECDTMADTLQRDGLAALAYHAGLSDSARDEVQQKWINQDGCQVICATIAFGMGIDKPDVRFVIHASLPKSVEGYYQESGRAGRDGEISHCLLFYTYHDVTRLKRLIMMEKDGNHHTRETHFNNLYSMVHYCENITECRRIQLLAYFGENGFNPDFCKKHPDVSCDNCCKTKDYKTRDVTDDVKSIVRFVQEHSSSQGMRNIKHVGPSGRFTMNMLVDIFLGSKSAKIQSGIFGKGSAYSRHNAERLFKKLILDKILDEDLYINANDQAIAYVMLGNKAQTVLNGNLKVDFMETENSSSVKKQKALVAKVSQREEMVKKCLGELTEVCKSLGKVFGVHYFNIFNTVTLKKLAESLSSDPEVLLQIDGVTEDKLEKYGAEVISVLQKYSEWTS

The results in this text go back to paper PMC9736344, “Discovery of a Novel Bloom’s Syndrome Protein (BLM) Inhibitor Suppressing Growth and Metastasis of Prostate Cancer” (International Journal of Molecular Sciences, 2022).

For at least one entry, the source does not settle the construct or the ends of the probe. At least one verdict rests on a figure or table, not on a statement of the authors.

On to “AATCCGTCGAGCAGTTTAGGTTAGGTTAGTTTTTT / CCTAACTCTGCTCGACGGATT [A1A2 dsDNA (forked duplex)]”, for which the binding result (500 nM protein, 2 nM DNA, 3 mM Mg2+, label: 3'-FAM on A2) was “binds”. Moreover, the binding signal (20 uM AO/854 (Table S2, Methods state 10 uM), 3 mM Mg2+, label: 3'-FAM on A2, scale: % DNA binding activity relative to no compound) is 31.5. Moreover, the binding signal (% inhibition of binding) (label: 3'-FAM on A2) was determined as 84.5.

For the sequence “CCTAACTCTGCTCGACGGATT [ssDNA (A2 presumed)]”, the binding signal (% inhibition of binding) (label: 3'-FAM, single-stranded DNA) amounted to 82.8. For the same sequence, the binding result (3 mM Mg2+, label: 3'-FAM, single-stranded DNA) was “binds”.
